Values from PubChem BioAssay AID652272 (Drosophila RNAi Screening Center, 2013).

Test: 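Finding fly genes that regulate Hedgehog signal transduction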 (primary screen)
Cell system: Drosophila clone 8 (Cl8) cells
Reagents: long dsRNA against Drosophila genes
Detection: 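Firefly light from a Hedgehog-responsive ptc promoter reporter and Renilla reference light, both read on a plate reader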
Direction: firefly Hh reporter signal: higher = more ptc reporter light; Renilla reference signal: higher = more Renilla control light
Hit rule: 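Hit when the z-score averaged over two replicates is under -2 or over +3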
Calls: active = hit: reporter lowered or raised; inactive = not a hit
The screen tested about 21,000 reagents; this is a random part of those that have a named target and a result. In the full data, 503 (2.4%) are marked active. 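Raw plate light values, not normalised; calls rest on replicate z-scores that were not deposited; hits include reporter decreases as well as increases.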 Reagents against one gene are numbered here. A plus sign joins genes that one reagent is predicted to hit. Reagent sequences are not shown. Not stated in the record: the amount of reagent, the time to read-out.

| gene | reagent no. | firefly Hh reporter signal, replicate 1 | firefly Hh reporter signal, replicate 2 | firefly Hh reporter signal, replicate 3 | Renilla reference signal, replicate 1 | Renilla reference signal, replicate 2 | call |
| --- | --- | --- | --- | --- | --- | --- | --- |
| CG1647 | 1 | 97840 | 78551 | – | 1604 | 1936 | inactive |
| Jon65Aii (Jonah 65Aii) | 1 | 66419 | 55974 | – | 8678 | 4262 | inactive |
| CG18787 + CG18789 | 1 | 58100 | 35392 | – | 1204 | 2741 | inactive |
| CG8476 | 1 | 70736 | 84440 | – | 2164 | 2169 | inactive |
| CG13046 | 1 | 1.17e5 | – | – | 5356 | 3121 | inactive |
| Tsen2 (tRNA splicing endonuclease subunit 2) | 1 | 96604 | 2.04e5 | – | 3205 | 9349 | inactive |
| CG9706 | 1 | 1.28e5 | 66787 | – | 4834 | 2898 | inactive |
| Rme-8 (Receptor mediated endocytosis 8) | 1 | 1.06e5 | 89376 | – | 4777 | 3488 | inactive |
| mei-38 (meiotic 38) | 1 | 81878 | 1.38e5 | – | 3572 | 6167 | inactive |
| CG5800 | 1 | 72794 | 2.15e5 | – | 1744 | 9880 | inactive |
| Dbct (Dihydrolipoamide branched chain transacylase E2) | 1 | 1.39e5 | 91370 | – | 3074 | 2368 | inactive |
| CG15891 + CG15892 | 1 | 1.74e5 | 98752 | – | 3244 | 1680 | inactive |
| CG15891 + CG15892 | 2 | 85867 | 2.48e5 | – | 2320 | 8258 | inactive |
| ATPsyngamma (ATP synthase, gamma subunit) | 1 | 57345 | 61121 | – | 2484 | 1498 | inactive |
| ND-MLRQ (NADH dehydrogenase (ubiquinone) MLRQ subunit) | 1 | 3.06e5 | – | – | 5568 | – | inactive |
| Ciao1 | 1 | 90499 | 83216 | – | 3813 | 3181 | inactive |
| rg (rugose) | 1 | 6.49e5 | 2.93e5 | – | 36800 | 5644 | inactive |
| rg (rugose) | 2 | 71067 | 1.15e5 | – | 1666 | 3093 | inactive |
| rg (rugose) | 3 | 95881 | 2.86e5 | – | 3634 | 10488 | inactive |
| inc (insomniac) | 1 | 91968 | 1.44e5 | – | 3819 | 5653 | inactive |
| inc (insomniac) | 2 | 1.23e5 | 1.09e5 | – | 2501 | 3009 | inactive |
| Ir75a (Ionotropic receptor 75a) | 1 | 86091 | – | – | 4731 | 2613 | inactive |
| CG13671 | 1 | 1.26e5 | 1.30e5 | – | 5670 | 5568 | inactive |
| Ibf2 (Insulator binding factor 2) | 1 | 83856 | 1.09e5 | – | 2155 | 3234 | inactive |
| pxb | 1 | 47347 | 2.67e5 | – | 9618 | 5748 | inactive |
| pxb | 2 | 1.22e5 | 1.52e5 | – | 2544 | 4233 | inactive |
| pxb | 3 | 1.21e5 | 1.34e5 | – | 3924 | 3259 | inactive |
| Toll-7 | 1 | 1.40e5 | 73766 | – | 3831 | 5299 | inactive |
| Vajk3 | 1 | 88076 | 67509 | – | 4379 | 2810 | inactive |
| spoon (spoonbill) | 1 | 87286 | 71224 | – | 2023 | 1584 | inactive |
| CG13331 | 1 | 80699 | 58816 | – | 1904 | 4194 | inactive |
| Ptr (Patched-related) | 1 | 70562 | 59720 | – | 1224 | 4438 | inactive |
| mRpL22 (mitochondrial ribosomal protein L22) | 1 | 70680 | 1.91e5 | – | 2592 | 7462 | inactive |
| RpL31 (Ribosomal protein L31) | 1 | 36610 | 23856 | – | 2168 | 3692 | active |
| CG43133 | 1 | 5.64e5 | 2.98e5 | – | 37883 | 7536 | inactive |
| sa (spermatocyte arrest) | 1 | 74140 | 5.47e5 | 1.19e5 | 2797 | 5241 | inactive |
| Stt3A | 1 | 1.12e5 | 1.31e5 | – | 2695 | 3021 | inactive |
| Jon99Cii (Jonah 99Cii) | 1 | 1.43e5 | 1.82e5 | – | 5024 | 5892 | inactive |
| CG11523 | 1 | 1.10e5 | 90618 | – | 4343 | 3729 | inactive |
| Fitm (Fat storage inducing transmembrane protein) | 1 | 93381 | 59655 | – | 4192 | 2776 | inactive |
| CG9406 | 1 | 1.35e5 | 54726 | – | 2961 | 2392 | inactive |
| HPS4 (Hermansky-Pudlak Syndrome 4) | 1 | 69670 | 38871 | – | 2018 | 2962 | inactive |
| Argk1 (Arginine kinase 1) | 1 | 6.59e5 | 2.00e5 | 1.34e5 | 5524 | 5235 | inactive |
| Argk1 (Arginine kinase 1) | 2 | 73144 | 70330 | – | 7769 | 355 | inactive |
| Argk1 (Arginine kinase 1) | 3 | 1.03e5 | 64563 | – | 4000 | 2584 | inactive |
| CG15185 | 1 | 46002 | 71733 | – | 2282 | 2403 | inactive |
| CG8441 | 1 | 1.05e5 | 73280 | – | 4816 | 2855 | inactive |
| CG8093 | 1 | 74256 | 55161 | – | 2218 | 3500 | inactive |
| unpg (unplugged) | 1 | 71851 | 41169 | – | 1715 | 3488 | inactive |
| CG9636 | 1 | 1.01e5 | 1.02e5 | – | 3991 | 3930 | inactive |
| l(2)dtl (lethal-(2)-denticleless) | 1 | 1.51e5 | 91936 | – | 6498 | 4293 | inactive |
| CycG (Cyclin G) | 1 | 1.10e5 | 72288 | – | 2618 | 2666 | inactive |
| CG32259 | 1 | 1.14e5 | 3.26e5 | – | 3408 | 11205 | inactive |
| NAT1 | 1 | 45733 | 29448 | – | 2528 | 1475 | inactive |
| CG13245 | 1 | 82340 | 86840 | – | 4064 | 3681 | inactive |
| Nbr (Nibbler) | 1 | 63207 | 59765 | – | 2641 | 2524 | inactive |
| CG6576 | 1 | 65420 | 64747 | – | 7165 | 4610 | inactive |
